From US20250214977A1, “STAT6 INHIBITORS AND USES THEREOF” (Kymera Therapeutics, Inc., priority 2024, published 2025)
The structures given here were assigned with low confidence; some may be wrong.

Sequences of proteins named here, by UniProt entry; tags and fusion partners are left off. Residues count along the entry.
UniProt P42226, 123-632 limits assumed: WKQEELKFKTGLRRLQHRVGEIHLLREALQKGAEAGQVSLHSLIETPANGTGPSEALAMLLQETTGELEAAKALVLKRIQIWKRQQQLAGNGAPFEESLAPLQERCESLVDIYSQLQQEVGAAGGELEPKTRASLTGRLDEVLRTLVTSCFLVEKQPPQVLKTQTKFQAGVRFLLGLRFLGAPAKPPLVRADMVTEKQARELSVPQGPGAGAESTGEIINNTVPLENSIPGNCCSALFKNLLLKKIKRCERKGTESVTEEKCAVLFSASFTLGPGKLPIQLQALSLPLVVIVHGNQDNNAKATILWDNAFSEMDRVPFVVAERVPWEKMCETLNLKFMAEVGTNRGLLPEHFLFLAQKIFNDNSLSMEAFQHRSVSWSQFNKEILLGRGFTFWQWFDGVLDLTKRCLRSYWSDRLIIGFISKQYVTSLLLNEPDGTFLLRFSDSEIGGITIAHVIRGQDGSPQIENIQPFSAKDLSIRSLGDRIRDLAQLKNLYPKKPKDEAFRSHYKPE

Assays:
[1] = target: biotinylated truncated STAT6 (123-632)-avi (Homo sapiens, UniProt P42226); assay: Homogenous Time-Resolved Fluorescence (HTRF) binding assay; conditions: read-out: STAT6 HTRF: Average IC50; 0.15 nM biotinylated truncated STAT6 (123-632)-avi, 20 nM fluorescein-labeled probe, 30 minutes at room temperature
Experimental: Example 1. Homogenous Time-Resolved Fluorescence (HTRF) Binding Assay
HTRF binding assays were performed using 0.15 nM biotinylated truncated STAT6 (123-632)-avi purified from E. coli, 1× Streptavidin-terbium (CisBio) prepared by mixing SA-Tb in PPI detection buffer (CisBio), 20 nM proprietary fluorescein-labeled probe, and test compounds in assay buffer consisting of 50 mM HEPES-Na pH 7.5, 100 mM NaCl, 1 mM EDTA, 2 mM DTT, 0.1% Tween-20 with a final volume of 20 uL. Compound stocks were dissolved at 10 mM in 100% DMSO and 11 point titration with 3 fold serial dilution was performed in white, opaque 384 well microplates. Reaction plates were incubated at room temperature for 30 minutes. Plates were centrifuged at low rpm for 5 mins, and the ratio of fluorescence intensities were measured at emission wavelengths for fluorescein acceptor (520 nm) and terbium donor (495 nm) on Envision Plate reader. % Inhibition was calculated from the 520/495 ratio generated by using proprietary positive control compound for 100% inhibition and DMSO only reactions for 0% inhibition. Data was processed and dose response curves were generated using GraphPad Prism to determine the concentration required for inhibiting 50% of the HTRF signal (IC50).

[2] = test system: Phosphorylation of STAT6 in human A549 cells; assay: Phosphorylated STAT6 (pSTAT6) flow cytometry assay in human A549 cells; conditions: read-out: STAT6 IL4 pSTAT6 assay in A549 cells: Average IC50
Excerpt: Example 3. Phosphorylated STAT6 (pSTAT6) Flow Cytometry Assay in Human A549 Cells
Phosphorylation of STAT6 in human A549 cells was quantitatively measured using flow cytometry technology.

SMILES: CNCc1cc(C2=CCCN(C(=O)CCn3ccnn3)C2)cc2cc(C(=O)N(C)C)oc12 [Example I-203]
- IC50 [1]: 0.1 to 1 µM
- IC50 [2]: 0.1 to 1 µM
